Data source: PubChem BioAssay AID1259254 (NCATS, 2017)

- Screen: 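Gene knock-downs that lead to re-replication, shown by excess G2 DNA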 (primary screen)
- Cells: human HCT116 colorectal cancer cells
- Knock-down reagent: single siRNA against human genes
- Time to read-out: 3 days
- Read-out: 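Nuclei stained with Hoechst and imaged; cell-cycle phase assigned by DNA content; G2 share scaled per plate, non-targeting siRNA 0%, GMNN siRNA 100%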
- Reading the numbers: G2 robust z-score and G2 cells, % of GMNN control: higher = more G2 cells, more excess DNA replication; raw share of cells in G2: higher = larger share of cells with G2 DNA content
- Rule for the call: 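Active siRNAs have a G2 robust z of 5 or more median absolute deviations over the median, which in these data means about 38% or higher of GMNN control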
Shown is an unselected part of about 59,000 reagents. About 1,550 of them (2.6%) were called active. 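G2 share is only a proxy for re-replication; each gene was hit by three separate siRNAs, and active genes were retested.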 The raw values are shown without normalisation. The numbers tell different reagents against one gene apart. Reagent sequences are not shown. Not stated in the record: the amount of reagent.

| gene | reagent | G2 robust z-score | G2 cells, % of GMNN control | raw share of cells in G2 (%) | outcome |
| --- | --- | --- | --- | --- | --- |
| TUBA1A | 1 | -0.477 | -0.39 | 5.43 | inactive |
| TUBA1A | 2 | -1.18 | -5.32 | 2.72 | inactive |
| TUBA1A | 3 | 0.921 | 9.45 | 7.78 | inactive |
| ETF1 | 1 | 2.38 | 19.7 | 12.4 | inactive |
| ETF1 | 2 | 0.848 | 8.94 | 8.66 | inactive |
| ETF1 | 3 | -0.0269 | 2.78 | 4.65 | inactive |
| RBBP4 | 1 | 2.65 | 21.6 | 14.2 | inactive |
| RBBP4 | 2 | 1.87 | 16.1 | 10.6 | inactive |
| RBBP4 | 3 | -0.699 | -1.95 | 2.65 | inactive |
| DNAJC27-AS1 | 1 | 1.44 | 13.1 | 9.24 | inactive |
| DNAJC27-AS1 | 2 | -0.655 | -1.64 | 2.66 | inactive |
| DNAJC27-AS1 | 3 | -0.0228 | 2.81 | 4.2 | inactive |
| LMBR1 | 1 | 1.81 | 15.7 | 12.2 | inactive |
| LMBR1 | 2 | 1.58 | 14.1 | 9.34 | inactive |
| LMBR1 | 3 | -0.327 | 0.668 | 4.47 | inactive |
| FLOT2 | 1 | 0.431 | 6 | 5.84 | inactive |
| FLOT2 | 2 | 0.613 | 7.28 | 8.26 | inactive |
| FLOT2 | 3 | 2.44 | 20.2 | 10.4 | inactive |
| RCBTB1 | 1 | -0.702 | -1.97 | 3.51 | inactive |
| RCBTB1 | 2 | 3.27 | 26 | 17.8 | inactive |
| RCBTB1 | 3 | -0.161 | 1.83 | 5.1 | inactive |
| GRIK1 | 1 | 0.281 | 4.94 | 7.09 | inactive |
| GRIK1 | 2 | -0.634 | -1.49 | 4.28 | inactive |
| GRIK1 | 3 | 0.417 | 5.9 | 6.68 | inactive |
| DNAJB5 | 1 | -0.201 | 1.55 | 3.34 | inactive |
| DNAJB5 | 2 | -0.47 | -0.34 | 5.76 | inactive |
| DNAJB5 | 3 | 1.66 | 14.6 | 8.23 | inactive |
| HSF1 | 1 | 3.53 | 27.8 | 15.1 | inactive |
| HSF1 | 2 | -0.15 | 1.91 | 6.41 | inactive |
| HSF1 | 3 | 0.0844 | 3.56 | 5.51 | inactive |
| THG1L | 1 | -0.0637 | 2.52 | 4.5 | inactive |
| THG1L | 2 | -0.924 | -3.53 | 2.78 | inactive |
| THG1L | 3 | -0.437 | -0.104 | 3.16 | inactive |
| CSNK2A1 | 1 | 0.0992 | 3.67 | 6.82 | inactive |
| CSNK2A1 | 2 | -0.393 | 0.204 | 5.48 | inactive |
| CSNK2A1 | 3 | -0.102 | 2.25 | 4.82 | inactive |
| SNTG1 | 1 | -0.762 | -2.4 | 4.87 | inactive |
| SNTG1 | 2 | 5.63 | 42.6 | 20 | active |
| SNTG1 | 3 | -0.881 | -3.23 | 2.56 | inactive |
| PHYHIPL | 1 | -0.287 | 0.949 | 4.42 | inactive |
| PHYHIPL | 2 | 1.16 | 11.1 | 6.75 | inactive |
| PHYHIPL | 3 | 0.672 | 7.69 | 4.74 | inactive |
| ARL4D | 1 | -0.309 | 0.793 | 5.36 | inactive |
| ARL4D | 2 | -0.92 | -3.5 | 3.53 | inactive |
| ARL4D | 3 | -0.617 | -1.37 | 3.48 | inactive |
| GABRG3 | 1 | -0.801 | -2.67 | 4.32 | inactive |
| GABRG3 | 2 | -0.0154 | 2.86 | 5.75 | inactive |
| GABRG3 | 3 | 1.17 | 11.2 | 8.75 | inactive |
| MLF1 | 1 | 0.229 | 4.58 | 7.29 | inactive |
| MLF1 | 2 | 0.468 | 6.26 | 5.26 | inactive |
| MLF1 | 3 | 3.73 | 29.2 | 16.7 | inactive |
| EMC9 | 1 | -1.06 | -4.5 | 2.13 | inactive |
| EMC9 | 2 | 0.0358 | 3.22 | 5.77 | inactive |
| EMC9 | 3 | 0.784 | 8.48 | 5.93 | inactive |
| NDUFB5 | 1 | 0.216 | 4.49 | 4.68 | inactive |
| NDUFB5 | 2 | 0.331 | 5.29 | 7.41 | inactive |
| NDUFB5 | 3 | 0.235 | 4.62 | 7.3 | inactive |
| ANGPTL1 | 1 | 4.02 | 31.3 | 18.7 | inactive |
| ANGPTL1 | 2 | 5.16 | 39.2 | 19 | active |
| ANGPTL1 | 3 | 1.14 | 11 | 8.65 | inactive |
| UBFD1 | 1 | -1.58 | -8.11 | 1.15 | inactive |
| UBFD1 | 2 | -0.466 | -0.312 | 4.31 | inactive |
| UBFD1 | 3 | 2.91 | 23.5 | 10.5 | inactive |
| ALDH5A1 | 1 | -0.12 | 2.12 | 5.05 | inactive |
| ALDH5A1 | 2 | -0.0928 | 2.31 | 5.24 | inactive |
| ALDH5A1 | 3 | -0.287 | 0.951 | 6 | inactive |
| ITGA4 | 1 | -1.36 | -6.59 | 2.65 | inactive |
| ITGA4 | 2 | 2.84 | 23 | 12.6 | inactive |
| ITGA4 | 3 | -1.01 | -4.11 | 4.12 | inactive |

6 entries from above in another layout.
{"gene":"UBFD1","reagent":2,"G2 robust z-score":-0.466,"G2 cells, % of GMNN control":-0.312,"raw share of cells in G2 (%)":4.31,"outcome":"inactive"}
{"gene":"UBFD1","reagent":3,"G2 robust z-score":2.91,"G2 cells, % of GMNN control":23.5,"raw share of cells in G2 (%)":10.5,"outcome":"inactive"}
{"gene":"ALDH5A1","reagent":1,"G2 robust z-score":-0.12,"G2 cells, % of GMNN control":2.12,"raw share of cells in G2 (%)":5.05,"outcome":"inactive"}
{"gene":"ALDH5A1","reagent":2,"G2 robust z-score":-0.0928,"G2 cells, % of GMNN control":2.31,"raw share of cells in G2 (%)":5.24,"outcome":"inactive"}
{"gene":"ALDH5A1","reagent":3,"G2 robust z-score":-0.287,"G2 cells, % of GMNN control":0.951,"raw share of cells in G2 (%)":6,"outcome":"inactive"}
{"gene":"ITGA4","reagent":1,"G2 robust z-score":-1.36,"G2 cells, % of GMNN control":-6.59,"raw share of cells in G2 (%)":2.65,"outcome":"inactive"}
